Earlier results, collected in US6962939B1, “Condensed indoline derivatives and their use as 5HT, in particular 5HT2C, receptor ligands” (Vernalis Research Limited, priority 1999, dated 2005).
For at least one compound, name, drawing or mass did not settle the structure.

Test system: rats
Conditions: cited from earlier work

## FC(F)(F)c1cccc(N2CCNCC2)c1 [TFMPP, trifluoromethylphenylpiperazine]
rat, in vivo
  appearance of the behavioural satiety sequence: accelerate the appearance of the behavioural satiety sequence
rats
  food intake in rats: reduce food intake
